In patent US20200339676A1 (University of California, published 2020):
Results are given in words; binding and its absence hold for the method and conditions named. In cells and extracts the contact can be indirect. Some results given as binding are weak or reduced against the parent protein; the word gives no strength. One block for each molecule: values may come before it.

By UniProt entry, the sequences of proteins in these tests, tags left out. Residues count along the entry.
UniProt Q99466, residues 24-2003: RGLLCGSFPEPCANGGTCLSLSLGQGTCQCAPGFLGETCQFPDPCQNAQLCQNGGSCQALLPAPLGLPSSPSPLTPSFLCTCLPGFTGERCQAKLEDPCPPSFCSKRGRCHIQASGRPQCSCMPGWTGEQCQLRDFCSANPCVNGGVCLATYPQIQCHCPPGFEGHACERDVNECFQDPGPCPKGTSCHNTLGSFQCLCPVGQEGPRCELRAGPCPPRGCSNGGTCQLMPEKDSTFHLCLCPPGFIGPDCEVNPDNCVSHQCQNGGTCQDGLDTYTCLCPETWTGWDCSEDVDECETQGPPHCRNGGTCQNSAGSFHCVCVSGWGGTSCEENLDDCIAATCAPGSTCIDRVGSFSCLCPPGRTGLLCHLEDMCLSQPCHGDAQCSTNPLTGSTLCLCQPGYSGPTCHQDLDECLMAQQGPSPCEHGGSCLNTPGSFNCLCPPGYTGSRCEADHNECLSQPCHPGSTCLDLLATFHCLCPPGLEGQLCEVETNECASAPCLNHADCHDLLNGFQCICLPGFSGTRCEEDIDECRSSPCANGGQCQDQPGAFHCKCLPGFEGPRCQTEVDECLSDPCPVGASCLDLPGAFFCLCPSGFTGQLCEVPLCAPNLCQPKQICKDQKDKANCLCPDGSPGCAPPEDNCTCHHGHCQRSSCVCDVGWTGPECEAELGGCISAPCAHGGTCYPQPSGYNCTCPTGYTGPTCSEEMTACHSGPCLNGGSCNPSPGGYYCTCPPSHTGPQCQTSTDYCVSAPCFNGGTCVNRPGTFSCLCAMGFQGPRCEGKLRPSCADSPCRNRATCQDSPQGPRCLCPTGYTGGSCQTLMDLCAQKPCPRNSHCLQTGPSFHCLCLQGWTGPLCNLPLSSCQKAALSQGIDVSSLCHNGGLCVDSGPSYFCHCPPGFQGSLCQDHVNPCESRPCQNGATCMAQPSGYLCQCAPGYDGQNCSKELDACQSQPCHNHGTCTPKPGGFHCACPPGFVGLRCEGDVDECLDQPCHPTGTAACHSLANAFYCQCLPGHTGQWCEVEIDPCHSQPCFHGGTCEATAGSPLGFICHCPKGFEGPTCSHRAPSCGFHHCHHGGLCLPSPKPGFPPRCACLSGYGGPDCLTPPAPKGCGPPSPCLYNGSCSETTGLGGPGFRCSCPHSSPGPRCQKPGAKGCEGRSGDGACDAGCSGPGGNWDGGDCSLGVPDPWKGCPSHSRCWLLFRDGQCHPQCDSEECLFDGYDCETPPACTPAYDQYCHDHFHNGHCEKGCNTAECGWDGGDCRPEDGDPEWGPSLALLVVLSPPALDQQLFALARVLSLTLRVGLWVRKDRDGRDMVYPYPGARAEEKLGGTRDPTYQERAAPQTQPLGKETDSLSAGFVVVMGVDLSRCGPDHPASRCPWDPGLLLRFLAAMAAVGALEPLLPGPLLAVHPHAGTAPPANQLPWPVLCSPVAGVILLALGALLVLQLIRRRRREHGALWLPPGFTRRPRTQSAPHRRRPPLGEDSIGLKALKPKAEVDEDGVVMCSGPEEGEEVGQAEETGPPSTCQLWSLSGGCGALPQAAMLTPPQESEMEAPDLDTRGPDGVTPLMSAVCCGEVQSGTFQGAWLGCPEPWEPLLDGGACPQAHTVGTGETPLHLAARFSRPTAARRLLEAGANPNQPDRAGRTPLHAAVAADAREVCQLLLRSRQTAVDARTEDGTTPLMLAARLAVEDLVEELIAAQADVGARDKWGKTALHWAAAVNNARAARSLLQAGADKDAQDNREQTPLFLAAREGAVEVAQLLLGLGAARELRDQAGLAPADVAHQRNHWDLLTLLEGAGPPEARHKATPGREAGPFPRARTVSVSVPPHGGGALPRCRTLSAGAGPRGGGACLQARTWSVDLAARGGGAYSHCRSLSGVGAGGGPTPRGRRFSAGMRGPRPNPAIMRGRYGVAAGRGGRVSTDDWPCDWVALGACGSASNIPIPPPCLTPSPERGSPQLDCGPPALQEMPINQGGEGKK
UniProt O89026, residues 20-1612: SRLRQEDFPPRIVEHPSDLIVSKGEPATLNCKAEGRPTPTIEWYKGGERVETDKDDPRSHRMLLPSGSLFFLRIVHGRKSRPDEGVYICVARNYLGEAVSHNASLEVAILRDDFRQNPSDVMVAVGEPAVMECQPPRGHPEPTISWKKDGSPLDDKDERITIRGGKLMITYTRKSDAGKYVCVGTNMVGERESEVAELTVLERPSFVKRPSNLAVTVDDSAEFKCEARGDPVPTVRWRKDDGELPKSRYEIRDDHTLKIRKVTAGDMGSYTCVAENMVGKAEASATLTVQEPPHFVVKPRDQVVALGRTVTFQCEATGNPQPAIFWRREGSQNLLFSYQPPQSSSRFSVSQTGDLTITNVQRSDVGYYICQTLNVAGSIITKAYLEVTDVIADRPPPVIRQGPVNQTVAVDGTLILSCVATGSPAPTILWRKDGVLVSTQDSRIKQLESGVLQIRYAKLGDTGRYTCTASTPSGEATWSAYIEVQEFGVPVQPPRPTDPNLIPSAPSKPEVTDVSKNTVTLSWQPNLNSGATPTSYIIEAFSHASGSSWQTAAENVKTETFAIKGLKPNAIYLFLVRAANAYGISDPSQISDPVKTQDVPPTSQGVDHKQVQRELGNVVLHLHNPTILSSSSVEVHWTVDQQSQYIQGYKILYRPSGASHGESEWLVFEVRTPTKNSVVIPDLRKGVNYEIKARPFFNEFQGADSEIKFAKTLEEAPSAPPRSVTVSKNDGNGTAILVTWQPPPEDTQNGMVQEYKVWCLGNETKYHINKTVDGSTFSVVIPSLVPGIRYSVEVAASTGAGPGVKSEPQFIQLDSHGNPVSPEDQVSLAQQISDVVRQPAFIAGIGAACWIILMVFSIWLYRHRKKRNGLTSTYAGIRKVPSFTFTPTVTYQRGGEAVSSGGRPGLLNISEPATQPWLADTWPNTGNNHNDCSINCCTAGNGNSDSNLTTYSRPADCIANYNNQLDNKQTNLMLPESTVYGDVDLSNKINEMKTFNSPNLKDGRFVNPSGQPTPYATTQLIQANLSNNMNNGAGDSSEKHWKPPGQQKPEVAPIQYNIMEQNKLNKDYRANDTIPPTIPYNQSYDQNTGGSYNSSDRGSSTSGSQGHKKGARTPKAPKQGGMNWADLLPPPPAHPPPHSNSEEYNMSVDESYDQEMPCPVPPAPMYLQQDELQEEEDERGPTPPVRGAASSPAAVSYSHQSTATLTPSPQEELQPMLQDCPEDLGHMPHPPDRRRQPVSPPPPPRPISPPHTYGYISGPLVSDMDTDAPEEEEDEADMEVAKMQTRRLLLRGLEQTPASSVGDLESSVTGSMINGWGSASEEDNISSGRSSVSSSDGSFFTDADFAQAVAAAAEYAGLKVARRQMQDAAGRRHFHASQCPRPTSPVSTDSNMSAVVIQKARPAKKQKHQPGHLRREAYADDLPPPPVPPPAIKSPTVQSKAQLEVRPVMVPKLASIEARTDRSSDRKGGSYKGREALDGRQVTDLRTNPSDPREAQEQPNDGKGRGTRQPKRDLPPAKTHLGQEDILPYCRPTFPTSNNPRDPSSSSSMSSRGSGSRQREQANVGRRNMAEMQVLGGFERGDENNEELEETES
UniProt Q9HCK4, residues 22-1378: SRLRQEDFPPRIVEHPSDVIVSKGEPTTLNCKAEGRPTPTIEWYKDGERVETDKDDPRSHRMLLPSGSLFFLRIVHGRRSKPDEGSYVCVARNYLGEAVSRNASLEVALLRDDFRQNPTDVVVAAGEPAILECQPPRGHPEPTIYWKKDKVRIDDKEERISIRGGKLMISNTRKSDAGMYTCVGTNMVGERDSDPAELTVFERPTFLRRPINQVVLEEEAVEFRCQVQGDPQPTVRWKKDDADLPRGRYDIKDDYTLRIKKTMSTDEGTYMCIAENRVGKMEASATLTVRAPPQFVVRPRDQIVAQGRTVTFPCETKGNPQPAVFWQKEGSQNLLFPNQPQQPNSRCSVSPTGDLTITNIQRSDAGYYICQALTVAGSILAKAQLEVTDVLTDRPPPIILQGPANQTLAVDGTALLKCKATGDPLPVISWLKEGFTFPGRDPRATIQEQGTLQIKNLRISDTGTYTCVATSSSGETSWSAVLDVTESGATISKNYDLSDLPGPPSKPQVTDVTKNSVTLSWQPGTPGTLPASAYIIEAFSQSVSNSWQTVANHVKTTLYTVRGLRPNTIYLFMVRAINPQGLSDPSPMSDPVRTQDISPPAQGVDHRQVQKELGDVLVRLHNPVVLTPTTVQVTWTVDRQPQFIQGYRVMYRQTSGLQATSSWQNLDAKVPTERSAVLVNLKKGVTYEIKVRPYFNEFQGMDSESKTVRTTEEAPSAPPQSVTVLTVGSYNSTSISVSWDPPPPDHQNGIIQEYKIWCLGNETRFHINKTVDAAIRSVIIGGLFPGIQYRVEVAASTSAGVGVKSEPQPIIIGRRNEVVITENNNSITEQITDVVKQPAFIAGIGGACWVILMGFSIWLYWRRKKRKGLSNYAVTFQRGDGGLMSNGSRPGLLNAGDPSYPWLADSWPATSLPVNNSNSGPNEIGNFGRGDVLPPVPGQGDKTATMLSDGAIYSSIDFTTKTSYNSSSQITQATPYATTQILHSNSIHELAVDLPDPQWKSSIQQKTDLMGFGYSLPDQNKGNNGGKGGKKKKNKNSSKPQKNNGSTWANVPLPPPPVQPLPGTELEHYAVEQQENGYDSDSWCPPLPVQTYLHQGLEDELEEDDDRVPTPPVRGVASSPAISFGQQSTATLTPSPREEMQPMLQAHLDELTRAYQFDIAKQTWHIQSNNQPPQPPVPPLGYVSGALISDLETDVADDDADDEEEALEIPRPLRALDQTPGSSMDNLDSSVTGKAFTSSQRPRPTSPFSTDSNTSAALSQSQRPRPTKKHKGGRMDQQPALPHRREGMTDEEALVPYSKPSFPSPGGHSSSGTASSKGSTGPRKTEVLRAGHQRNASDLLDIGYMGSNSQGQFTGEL

Legend:
[1] = target: Endogenous NOTCH4 (HC11 cells) (UniProt P31695); assay: co-immunoprecipitation with anti-ROBO1 from HC11 lysates, with and without SLIT2 and SLIT3; less complex with SLIT2/SLIT3 in late stage primed cells
[2] = target: Endogenous NOTCH4 (HC11 cells) (UniProt P31695); assay: co-immunoprecipitation of endogenous proteins, HC11 lysates (FIG. 3M, n=1)
[3] = target: Endogenous ROBO1 (MDA-MB-231 and HEK293 cell lysates) (UniProt Q9Y6N7); assay: co-immunoprecipitation of endogenous proteins, HEK293 lysates (FIG. 5G, n=1)
[4] = target: Endogenous ROBO1 (MDA-MB-231 and HEK293 cell lysates) (UniProt Q9Y6N7); assay: co-immunoprecipitation of endogenous proteins with a ROBO1 antibody, HEK cells; two intense ROBO2 bands after SLIT2 and SLIT3 treatment (1 ug each, four hours)
[5] = target: Endogenous NOTCH4 (MDA-MB-231 cell lysate) (UniProt Q99466); assay: co-immunoprecipitation of endogenous proteins, MDA-MB-231 lysates (FIG. 3H, n=3)
[6] = target: Endogenous NOTCH4 (MDA-MB-231 cell lysate) (UniProt Q99466); assay: co-immunoprecipitation of endogenous proteins, MDA-MB-231 lysates, Western blot

binding [1]: binds
binding [2]: binds
Molecule: Endogenous ROBO1 (HC11 cells) (from UniProt O89026 20-1612) (receptor)

binding [3]: binds
binding [4]: binds
Molecule: Endogenous ROBO2 (HEK293 cell lysate) (from UniProt Q9HCK4 22-1378) (receptor)

binding [5]: binds
binding [6]: binds
B1: Endogenous ROBO1 (MDA-MB-231 and HEK293 cell lysates) (receptor, UniProt Q9Y6N7 26-1651, looked up)
chain: QLIPDPEDVERGNDHGTPIPTSDNDDNSLGYTGSRLRQEDFPPRIVEHPSDLIVSKGEPATLNCKAEGRPTPTIEWYKGGERVETDKDDPRSHRMLLPSGSLFFLRIVHGRKSRPDEGVYVCVARNYLGEAVSHNASLEVAILRDDFRQNPSDVMVAVGEPAVMECQPPRGHPEPTISWKKDGSPLDDKDERITIRGGKLMITYTRKSDAGKYVCVGTNMVGERESEVAELTVLERPSFVKRPSNLAVTVDDSAEFKCEARGDPVPTVRWRKDDGELPKSRYEIRDDHTLKIRKVTAGDMGSYTCVAENMVGKAEASATLTVQEPPHFVVKPRDQVVALGRTVTFQCEATGNPQPAIFWRREGSQNLLFSYQPPQSSSRFSVSQTGDLTITNVQRSDVGYYICQTLNVAGSIITKAYLEVTDVIADRPPPVIRQGPVNQTVAVDGTFVLSCVATGSPVPTILWRKDGVLVSTQDSRIKQLENGVLQIRYAKLGDTGRYTCIASTPSGEATWSAYIEVQEFGVPVQPPRPTDPNLIPSAPSKPEVTDVSRNTVTLSWQPNLNSGATPTSYIIEAFSHASGSSWQTVAENVKTETSAIKGLKPNAIYLFLVRAANAYGISDPSQISDPVKTQDVLPTSQGVDHKQVQRELGNAVLHLHNPTVLSSSSIEVHWTVDQQSQYIQGYKILYRPSGANHGESDWLVFEVRTPAKNSVVIPDLRKGVNYEIKARPFFNEFQGADSEIKFAKTLEEAPSAPPQGVTVSKNDGNGTAILVSWQPPPEDTQNGMVQEYKVWCLGNETRYHINKTVDGSTFSVVIPFLVPGIRYSVEVAASTGAGSGVKSEPQFIQLDAHGNPVSPEDQVSLAQQISDVVKQPAFIAGIGAACWIILMVFSIWLYRHRKKRNGLTSTYAGIRKVPSFTFTPTVTYQRGGEAVSSGGRPGLLNISEPAAQPWLADTWPNTGNNHNDCSISCCTAGNGNSDSNLTTYSRPADCIANYNNQLDNKQTNLMLPESTVYGDVDLSNKINEMKTFNSPNLKDGRFVNPSGQPTPYATTQLIQSNLSNNMNNGSGDSGEKHWKPLGQQKQEVAPVQYNIVEQNKLNKDYRANDTVPPTIPYNQSYDQNTGGSYNSSDRGSSTSGSQGHKKGARTPKVPKQGGMNWADLLPPPPAHPPPHSNSEEYNISVDESYDQEMPCPVPPARMYLQQDELEEEEDERGPTPPVRGAASSPAAVSYSHQSTATLTPSPQEELQPMLQDCPEETGHMQHQPDRRRQPVSPPPPPRPISPPHTYGYISGPLVSDMDTDAPEEEEDEADMEVAKMQTRRLLLRGLEQTPASSVGDLESSVTGSMINGWGSASEEDNISSGRSSVSSSDGSFFTDADFAQAVAAAAEYAGLKVARRQMQDAAGRRHFHASQCPRPTSPVSTDSNMSAAVMQKTRPAKKLKHQPGHLRRETYTDDLPPPPVPPPAIKSPTAQSKTQLEVRPVVVPKLPSMDARTDRSSDRKGSSYKGREVLDGRQVVDMRTNPGDPREAQEQQNDGKGRGNKAAKRDLPPAKTHLIQEDILPYCRPTFPTSNNPRDPSSSSSMSSRGSGSRQREQANVGRRNIAEMQVLGGYERGEDNNEELEETES
notes: Endogenous full-length receptor in detergent cell lysate, immunoprecipitated with an anti-ROBO1 antibody; Human is inferred from the cell lines; also called R1
